Measurements as given in PMC5467389.
Results are given in words; binding and its absence hold for the method and conditions named. Binding seen in cells or lysates may run through a third protein. Here binding means that the protein was enriched with, or labelled near, the bait; the list need not be complete.

Amino acid sequences for entries named in this document (tags omitted).
UniProt Q6R891: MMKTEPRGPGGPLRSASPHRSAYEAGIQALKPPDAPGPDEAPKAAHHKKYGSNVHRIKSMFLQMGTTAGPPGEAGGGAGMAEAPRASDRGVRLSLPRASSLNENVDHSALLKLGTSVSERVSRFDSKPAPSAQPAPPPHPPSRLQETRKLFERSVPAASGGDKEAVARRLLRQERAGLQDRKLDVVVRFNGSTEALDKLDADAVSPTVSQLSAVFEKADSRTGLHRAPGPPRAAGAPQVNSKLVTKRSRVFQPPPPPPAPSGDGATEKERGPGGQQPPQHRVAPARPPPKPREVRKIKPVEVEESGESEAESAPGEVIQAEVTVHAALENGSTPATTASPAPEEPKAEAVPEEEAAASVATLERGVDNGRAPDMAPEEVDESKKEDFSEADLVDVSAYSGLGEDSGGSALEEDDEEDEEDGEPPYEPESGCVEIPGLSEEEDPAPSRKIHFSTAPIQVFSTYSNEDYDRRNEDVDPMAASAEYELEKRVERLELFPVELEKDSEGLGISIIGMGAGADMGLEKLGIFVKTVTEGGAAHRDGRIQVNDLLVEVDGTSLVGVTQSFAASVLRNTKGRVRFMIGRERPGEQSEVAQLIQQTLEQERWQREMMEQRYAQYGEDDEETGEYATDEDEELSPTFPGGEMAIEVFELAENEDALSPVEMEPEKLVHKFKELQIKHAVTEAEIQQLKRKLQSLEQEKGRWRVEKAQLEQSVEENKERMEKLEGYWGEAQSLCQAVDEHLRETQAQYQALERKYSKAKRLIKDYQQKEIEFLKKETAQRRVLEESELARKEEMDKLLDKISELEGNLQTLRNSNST

Molecular target: spinophilin (mouse (endogenous in C57Bl/6 brain)) (UniProt Q6R891)
Test: affinity purification with mass spectrometry; spinophilin immunoprecipitated (goat antibody) from extrasynaptic (S2) and synaptic (S3) fractions of intact and 6-OHDA-lesioned mouse striatum; SDS-PAGE, gel regions digested with trypsin, Orbitrap Velos; spectral counts and XIC areas

binding: binds
B1: SAPAP3 (protein, UniProt Q6PFD5 1-977)
chain: MRGYHGDRGSHPRPARFADQQHMDVGPAARAPYLLGSREAFSTEPRFCAPRAGLGHLSPEGPLSLSEGPSSVGPEGGPGGVGAGGGSSTFPRMYPGQGPFDTCEDCVGHPQGKGATRLPPTLLDQFEKQLPVQQDGFHTLPYQRGPAGPGPGPGSGAAPEARSESPSRIRHLVHSVQKLFAKSHSLEAPGKRDYNGPKADGRGSSGGDSYSGPGSGGTPTSHHHHHHHHHHHHQSRHGKRSKSKDRKGDGRHQTKATGWWSSDDNLDSDSGFLGGRPPGEPGGPFCLDAPDGSYRDLSFKGRSGGSEGRCLACTGMSMSLDGQSVKRSAWHTMMVSQGRDGYPGAGPGKGLLGPETKAKARTYHYLQVPQDDWGGYPTGGKDGEIPCRRMRSGSYIKAMGDEESGDSDGSPKTSPKALARRFASRRSSSVDTARINCCVPPRIHPRSSIPGYSRSLTTGQLSEEFNQQLEAVCGSVFGELESQAVDALDLPGCFRMRSHSYLRAIQAGCSQDDDCLPLLAAPASVSGRPGSSFNFRKAPPPIPPGSQAPPRISITAQSSTDSAHESFTAAEGPARRCSSADGLDGPTMGARTLELAPVPPRASPKPPTLIIKTIPGREELRSLARQRKWRPSIGVQVETISDSDTENRSRREFHSIGVQVEEDKRRARFKRSNSVTAGVQADLELEGLAGLATVATEDKALQFGRSFQRHASEPQPGPRAPTYSVFRTVHTQGQWAYREGYPLPYEPPATDGSPGPTPVPAPGPGSGRRDSWMERGSRSLPDSGRTSPCPRDGEWFIKMLRAEVEKLEHWCQQMEREAEDYELPEEILEKIRSAVGSTQLLLSQKVQQFFRLCQQSLDPTAFPVPTFQDLAGFWDLLQLSIEDVTLKFLELQQLKANSWKLLEPKEEKKVPPPIPKKPSRGRGVPVKERSLDSVDRQRQEARKRLLAAKRAASFRHSSATESADSIEIYIPEAQTRL
